This passage reports binding results from patent US20210169980A1.

By UniProt entry, the sequences of proteins in these tests, tags left out.
UniProt O95166: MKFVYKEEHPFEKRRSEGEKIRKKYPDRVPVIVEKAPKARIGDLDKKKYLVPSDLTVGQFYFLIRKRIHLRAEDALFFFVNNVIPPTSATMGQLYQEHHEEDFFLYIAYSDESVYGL

These are yes or no findings as the source states them, for the method shown. Some binding calls cover weakened binding; strength is not graded here.

The target of this assay is GABARAP (human) (UniProt O95166). Kind of assay: ITC. (In general: In ITC the heat of successive injections is recorded.)

B1: human FAM134B LIR with the C-helix extension (LIR-L, aa 448-469) (peptide)
peptide: EGDDFELLDQSELDQIESELGLTQDQ
Regarding B1, the binding entry is listed as “binds”.
